From patent US20100143349A1 (Pfizer, published 2010) come the findings set out here.

Chains of the proteins cited; added tags and fusions are not shown. Residues count along the entry.
UniProt Q15109, residues 23-404: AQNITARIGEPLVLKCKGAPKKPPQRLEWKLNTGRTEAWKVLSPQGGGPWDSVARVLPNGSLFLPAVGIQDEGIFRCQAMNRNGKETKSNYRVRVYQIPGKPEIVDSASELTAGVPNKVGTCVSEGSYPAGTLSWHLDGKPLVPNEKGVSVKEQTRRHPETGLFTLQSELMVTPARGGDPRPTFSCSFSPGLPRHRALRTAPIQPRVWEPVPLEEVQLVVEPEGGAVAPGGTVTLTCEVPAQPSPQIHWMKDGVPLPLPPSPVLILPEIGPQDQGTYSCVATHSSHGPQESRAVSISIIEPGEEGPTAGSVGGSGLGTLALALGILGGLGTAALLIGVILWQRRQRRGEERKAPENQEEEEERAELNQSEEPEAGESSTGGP
UniProt Q62151, residues 23-340: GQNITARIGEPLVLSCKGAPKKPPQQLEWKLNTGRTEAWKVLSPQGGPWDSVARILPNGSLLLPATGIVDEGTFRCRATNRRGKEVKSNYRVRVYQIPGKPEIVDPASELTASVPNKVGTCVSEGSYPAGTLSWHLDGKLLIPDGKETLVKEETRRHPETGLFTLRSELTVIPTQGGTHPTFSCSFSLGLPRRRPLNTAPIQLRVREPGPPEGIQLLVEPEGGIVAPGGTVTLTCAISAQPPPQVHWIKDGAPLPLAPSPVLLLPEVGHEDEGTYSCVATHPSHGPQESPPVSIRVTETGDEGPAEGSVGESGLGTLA

In test [1] the target is human RAGE expressed on CHO cells (human) (UniProt Q15109). Put plainly: binding to cell surface expressed human RAGE.
For test [2], the target named is murine RAGE (mouse) (UniProt Q62151). Kind of test: HTRF competition on murine RAGE. A general note: TR-FRET usually uses a lanthanide donor and a delayed reading to cut background.

These are yes or no findings as the source states them, for the method shown. Some binding calls cover weakened binding; strength is not graded here. Tags and fused reporters may be left off the sequences shown.

B1: 1G6 scFv-Fc fusion (Fc fusion)
chain: DIQMTQSPSSLSASVGDRVTITCRASQDVGFYVNWFQQKPGKAPRRLIYRATNLADGVPSRFSGSRSGTDFTLTISSLQPEDFATYYCLEFDEHPLTFGGGTKVEIKDGGGSGGGGSGGGGSSEVQLVESGGGLVQPGGSLRLSCAASGFTFNNYWMTWVRQAPGKGLEWVASIDNSGDNTYYPDSVKDRFTISRDNAKNSLYLQMNSLRAEDTAVYYCARGGDITNGFDYWGQGTLVTVSS
notes: not shown: wild-type human IgG Fc (hinge and constant domains)
In the case of B1, the binding result in test [1] and in test [2] was “binds” in each case.

B2: 6G4 scFv-Fc fusion (Fc fusion)
chain: DIQMTQSPSSLSASVGDRVTITCRASQDVGIYVNWFQQKPGKAPRRLIYRATNLADGVPSRFSGSRSGTDFTLTISSLQPEDFATYYCLEFDEHPLTFGGGTKVEIKDGGGSGGGGSGGGGSSEVQLVESGGGLVQPGGSLRLSCAASGFTFNNYWMTWVRQAPGKGLEWVASIDNSGDNTYYPDSVKDRFTISRDNAKNSLYLQMNSLRAEDTAVYYCARGGDILDSLHFWGQGTLVTVSS
notes: Assayed separately; fold gain against the M4 value of the ribosome display set; not shown: wild-type human IgG Fc (hinge and constant domains)
As for B2, the binding result in test [1] and in test [2] was “binds” throughout.

B3: 6C2 scFv-Fc fusion (Fc fusion)
chain: DIQMTQSPSSLSASVGDRVTITCRASQDVGIYVNWFQQKPGKAPRRLIYRATNLADGVPSRFSGSRSGTDFTLTISSLQPEDFATYYCLEFDEHPLTFGGGTKVEIKDGGGSGGGGSGGGGSSEVQLVESGGGLVQPGGSLRLSCAASGFTFNNYWMTWVRQAPGKGLEWVASIDNSGDNTYYPDSVKDRFTISRDNAKNSLYLQMNSLRAEDTAVYYCARGGDIKVSLDRWGQGTLVTVSS
notes: as for B1
Turning to B3, the binding entry in test [1] and in test [2] was “binds” throughout.

B4: 2E6 scFv-Fc fusion (Fc fusion)
chain: DIQMTQSPSSLSASVGDRVTITCRASQDVGIYVNWFQQKPGKAPRRLIYRATNLADGVPSRFSGSRSGTDFTLTISSLQPEDFATYYCLEFDEHPLTFGGGTKVEIKDGGGSGGGGSGGGGNSEVQLVESGVGLVQPGGSLRLSCAASGFTFNNYWMTWVRQAPGKGLEWVASIDNSGDNTYYPDSVKDRFTISRDNAKNSLYLQMNSLRAEDTAVYYCARGGDITNGLDYWGQGTLVTVSS
notes: also called 2E6 (c); not shown: wild-type human IgG Fc (hinge and constant domains)
As for B4, the binding entry in test [1] and in test [2] was “binds” throughout.

B5: 6B2 scFv-Fc fusion (Fc fusion)
chain: DIQMTQSPSSLSASVGDRVTITCRASQDVGIYVNWFQQKPGKAPRRLIYRATNLADGVPSRFSGSRSGTDFTLTISSLQPEDFATYYCLEFDEHPLTFGGGTKVEIKDGGGSGGGGSGGGGSSEVQLVESGGGLVQPGGSLRLSCAASGFTFNNYWMTWVRQAPGKGLEWVASIDNSGDNTYYPDSVKDRFTISRDNAKNSLYLQMNSLRAEDTAVYYCARGGDIRVGLDVWGQGTLVTVSS
notes: Substitutions derived from the printed HCDR3; not shown: wild-type human IgG Fc (hinge and constant domains)
With B5, the binding result in test [1] and in test [2] was “binds” each time.

B6: 6C3 scFv-Fc fusion (Fc fusion)
chain: DIQMTQSPSSLSASVGDRVTITCRASQDVGIYVNWFQQKPGKAPRRLIYRATNLADGVPSRFSGSRSGTDFTLTISSLQPEDFATYYCLEFDEHPLTFGGGTKVEIKDGGGSGGGGSGGGGSSEVQLVESGGGLVQPGGSLRLSCAASGFTFNNYWMTWVRQAPGKGLEWVASIDNSGDNTYYPDSVKDRFTISRDNAKNSLYLQMNSLRAEDTAVYYCARGGDITLGLDVWGQGTLVTVSS
notes: as for B1
For B6, the binding result in test [1] and in test [2] was “binds” throughout.

B7: 10H6 scFv-Fc fusion (Fc fusion)
chain: DIQMTQSPSSLSASVGDGVTITCQASQDVGIYVNWFQQKPGKAPRRLIYRATNLADGVPSRFSGSRSGTDFTLTISSLQPEDFATYYCLEFDEHPLTFGGGTKVEIKNGGGSGGGGSGGGGSSEVQLVESGGGLVQPGGSLRLSCAASGFTFNNYWMTWVRQAPGKGLEWVASIDNSGDNTYYPDSVKDRFTISRDNAKNSLYLQMNSLRAEDTAVYYCARGGDITTGLDYWGQGTLVTESS
notes: also called 10H6 (a); not shown: wild-type human IgG Fc (hinge and constant domains)
As to B7, the binding entry in test [2] is “binds”.

B8: 3B3 scFv-Fc fusion (Fc fusion)
chain: DIQMTQSPSSLSASVGDRVTITCRASQDVGFYVNWFQQKPGKAPRRLIYRATNLADGVPSRFSGSRSGTDFTLTISSLQPEDFATYYCLEFDEHPLTFGGGTKVEIKDGGGSGGGGSGGGGSSEVQLVESGGGLVQPGGSLRLSCAASGFTFNNYWMTWVRQAPGKGLEWVASIDNSGDNTYYPDSVKDRFTISRDNAKNSLYLQMNSLRAEDTAVYYCARGGDITTGLDYWGQGTLVTVSS
notes: as for B1
Turning to B8, the binding result in test [1] and in test [2] was “binds” in each case.

B9: 3B2 scFv-Fc fusion (Fc fusion)
chain: DIQMTQSPSSLSASVGDRVTITCRASQDVGIYVNWFQQKPGKAPRRLIYRATNLADGVPSRFSGSRSGTDFTLTISSLQPEDFATYYCLEFDEHPLTFGGGTKVEIKDGGGSGGGGSGGGGSSEVQLVESGGGLVQPGGSLRLSCAASGFTFNNYWMTWVRQAPGKGLEWVASIDNSGDNTYYPDSVKDRFTISRDNAKNSLYLQMNSLRAEDTAVYYCARGGDILVGLDYWGQGTLVTVSS
notes: as for B1
Regarding B9, the binding entry in test [1] and in test [2] was “binds” each time.

B10: 8G9 scFv-Fc fusion (Fc fusion)
chain: DIQMTQSPSSLSASVGDRVTITCRASQDVGIYVNWFQQKPGKAPRRLIYRATNLADGVPSRFSGSRSGTDFTLTISSLQPEDFATYYCLEFDEHPLTFGGGTKVEIKDGGGSGGGGSGGGGSSEVQLVESGGGLVQPGSSLRLSCAASGFTFNNYWMTWVRQAPGKGLEWVASIDNSGDNTYYPDSVKDRFTISRDNAKNSLYLQMNSLRAEDTAVYYCARGGDITTGLDYWGQGTLVTVSS
notes: as for B1
Turning to B10, the binding result in test [1] and in test [2] was “binds” throughout.

B11: 5A3 scFv-Fc fusion (Fc fusion)
chain: DIQMTQSPSSLSASVGDIVTITCRASQDVGIYVNWFQQKPGKAPRRLIYRATNLADGVPSRFSGSRSSTDFTLTISSLQPEDFATYYCLEFDEHPLTFGGGTKVEIKDGGGSGGGGSGGGGSSEVQLVESGGGLVQPGGSLRLSCAASGFTFNNYWMTWVRQAPGKGLEWVASIDNSGDNTYYPDSVKDRFTISRDNAKNSLYLKMNSLRAEDTAVYYCTRGGDITTGLDYWGQGTLVTVSS
notes: as for B1
As for B11, the binding entry in test [1] and in test [2] was “binds” throughout.

B12: 5H3 scFv-Fc fusion (Fc fusion)
chain: DIQMTQSPSSLSASVGDRVTITCRASQDVGIYVNWFQQKPGKAPRRLIDRATNLADGVPSRFSGSRSGTDFTLTISSLQPEDFATYYCLEFDEHPLTFGGGTKVEIKDGGGSGGGGSGGGGSSEVLLVESGGGLVQPGGSLRLSCAASGFTFNNYWMTWVRQAPGKGLEWVASIDNSGDNTYYPDSVKDRFTISRDNAKNSLYLQMNSLRAEDTAVYYCARGGDITTGFDYWGQGTLVTVSS
notes: as for B1
For B12, the binding result in test [2] is on record as “binds”.

B13: 3D2 scFv-Fc fusion (Fc fusion)
chain: DIQMTQSPSSLSASVGDRVTITCRASQDVGIYVNWFQQKPGKAPRRLIYRATNLADGVPSRFSGSRSGTDFTLTISSLQPEDFATYYCLEFDEHPLTFGGGTKVEIKDGGGSGGGGSGGGGSSEVQLVESGGGLVQPGGSLRLSCAASGFTFNNYWMTWVRQAPGKGLEWVASIDNSGDNTYYPDSVKDRFTISRDNAKNSLYLQMNSLRAEDTAVYYCARGGDIRVSLDHWGQGTLVTVSS
notes: as for B1
As for B13, the binding entry in test [1] and in test [2] was “binds” in each case.

B14: 10G10 scFv-Fc fusion (Fc fusion)
chain: DIQMTQSPSSLSASVGDRVTITCRASQDVGIYVNWFQQKPGKAPRRLIYRATNLADGVPSRFSGSRSGTDFTLTISSLQPEDFATYYCLEFDEHPLTFGGGTRVEIKDGGGSGGGGSGGGGSSEVQLVESGGGLVQPGGSLRLSCAASGFTFNNYWMSWVRQAPGKGLEWVASIDNSGENTYYPDSVKDRFTISRDNAKNSLYLQMNSLRAEDTAVYYCARGGDITTGFDYWGQGTLVTVSS
notes: as for B1
In the case of B14, the binding entry in test [1] and in test [2] was “binds” each time.

B15: 10D8 scFv-Fc fusion (Fc fusion)
chain: DIQMTQSPSSLSASVGDKVTITCRASQDVGFYVNWFQQKPGKAPRRLIYRATNLADGVPSRFSGSRSGTDFTLTISSLQPEDFATYYCLEFDEHPLTFGGGTKVEIKDGGGSGNGGSGGGGSSEVQLVESGGELVQPGGSLRLSCAASGFTFNNYWMTWVRQAPGKGLEWVASIDNSGDNTYYPDSVKDRFTISRDNAKNSLYLQMNSLRAEDTAVYYCARGGDITTGFDYWGQGTLVTVSS
notes: also called 10D8 (b); not shown: wild-type human IgG Fc (hinge and constant domains)
On to B15, for which the binding result in test [1] and in test [2] was “binds” throughout.

B16: 3G5 scFv-Fc fusion (Fc fusion)
chain: DIQMTQSPSSLSASVGDRVTITCRASQDVGIYVNWFQQKPGKAPRRLIYRATNLADGVPSRFSGSRSGTDFTLTISSLQPEDFATYYCLEFDEHPLTFGGGTKVEIKDGGGSGGGGSGGGGSSEVQLVESGGGLVQPGGSLRLSCAASGFTFNNYWMTWVRQAPGKGLEWVASIDNSGDNTYYPDSVKDRFTISRDNAKNSLYLQMNSLRAEDTAVYYCARGGDILDSLPYWGQGTLVTVSS
notes: as for B5
Consider B16, for which the binding entry in test [1] and in test [2] was “binds” throughout.

B17: 6B6 scFv-Fc fusion (Fc fusion)
chain: DIQMTQSPSSLSASVGDRVTITCRASQDVGIYVNWFQQKPGKAPRRLIYRATNLADGVPSRFSGSRSGTDFTLTISSLQPEDFATYYCLEFDEHPLTFGGGTKVEIKDGGGSGGGGSGGGGSSEVQLVESGGGLVQPGGSLRLSCAASGFTFNNYWMTWVRQAPGKGLEWVASIDNSGDNTYYPDSVKDRFTISRDNAKNSLYLQMNSLRAEDTAVYYCARGGDIIISLDWWGQGTLVTVSS
notes: as for B5
Consider B17, for which, in test [1], the binding result is reported as “binds”.

B18: 3A6 scFv-Fc fusion (Fc fusion)
chain: DIQMTQSPSSLSASVGDRVTITCRASQDVGIYVNWFQQKPGKAPRRLIYRATNLADGVPSRFSGSRSGTDFTLTISSLQPEDFATYYCLEFDEHPLTFGGGTKVEIKDGGGSGGGGSGGGGSSEVQLVESGGGLVQPGGSLRLSCAASGFTFNNYWMTWVRQAPGKGLEWVASIDNSGDNTYYPDSVKDRFTISRDNAKNSLYLQMNSLRAEDTAVYYCARGGDILVSLDVWGQGTLVTVSS
notes: as for B1
Consider B18, for which the binding result in test [1] and in test [2] was “binds” each time.
